Among all 400,000 compounds or so, about 13,000 (3.2%) were called active. Inconclusive results, whose numbers are uncertain, are shown with a selection of clear calls. Calls come from the whole dose curve; as a rule, active = well fitted cell-killing curve with a large enough effect; inconclusive = small, poorly fitted or top-dose-only effect, or effect the other way; inactive = flat fitted curve, though single readings scatter. Where the call is inconclusive, the potency comes from a doubtful curve fit.
Assay: qHTS assay for MDR1-selective chemotherapeutics: Primary screen using the drug-selected MDR subline cells KB-V1; note: nearly all actives have a fitted effect of over 60% in size
Settings: KB-V1 MDR cells viability, CellTiter-Glo, 72 h; activity change, negative = cytotoxicity: at 46.1 µM (top of the series)
Summary of the method: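 Cytotoxicity via CellTiter-Glo luminescence after 72 h compound exposure at 37 degrees C. Cells: drug-selected KB-V1 line, DMEM phenol-red free plus 10% FBS. Compounds tested at multiple concentrations; normalized data fitted to concentration-effect curves.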
% is set by controls: 0 for no effect and ±100 for the full control effect; potency is the fitted concentration of half-maximal effect.

Row | Compound | Potency | activity change, negative = cytotoxicity
1 | CCOc1ccccc1CNC(=O)c1cccn1-c1nnc(N2CCCCC2)s1 | inconclusive: 32.6 µM [cytotoxic, single point] | 
2 | COc1ccc(Cl)cc1NC(=O)CNCC(c1ccccc1)N(C)C (centres undefined) | inconclusive: 18.4 µM [cytotoxic, partial curve, poor fit] | 
3 | COc1ccc(C2=C(Nc3ccc(C)c(C)c3)c3ccccc3C2=O)cc1 |  | inactive: 10.1%
4 | COc1cc2c(cc1OC)C(C(=O)Nc1ccc3c(c1)OCCO3)C(c1cccnc1)N(C)C2=O (centres undefined) | inconclusive: 23.1 µM [rising, single point] | 
5 | CCOc1ccc(C(=O)Nc2cc(-c3nc4ccccc4s3)ccc2OC)cc1 | active: 7.31 µM | 
6 | COc1cc(C(=O)N2CCN(Cc3ccc4c(c3)OCO4)CC2)cc(OC)c1OC | inconclusive: 10.3 µM [cytotoxic, partial curve, poor fit] | 
7 | Nc1nc(-c2ccccc2)nc2sc3c(c12)CCCC3 | active: 23.1 µM | 
8 | N#Cc1cccc(NC(=O)c2cc3c(s2)-c2ccc(Cl)cc2SC3)c1 | inconclusive: 25.9 µM [cytotoxic, single point] | 
9 | COc1ccccc1N1CCN(C(=O)c2cc(-c3ccccc3O)on2)CC1 | inactive | 
10 | Cc1[nH]nc(-c2ccc(O)c(C)c2O)c1-c1cnn(-c2ccccc2)c1 | active: 16.4 µM | 
11 | COc1ccc(-c2nc(-c3ccncc3)no2)cc1 | inconclusive: 0.0073 µM [rising, full curve, poor fit] | 
12 | CCOc1ccc(Br)cc1C1C(C(=O)OC)=C(N)Oc2cc(N(C)C)ccc21 (centres undefined) | active: 23.1 µM | 
13 | COc1ccccc1CCC(=O)Nc1ccc(OC)c(S(=O)(=O)N2CCOCC2)c1 | inconclusive: 29.1 µM [cytotoxic, single point] | 
14 | COc1cc(CN2CCCC(N3CCN(c4ccccc4C)CC3)C2)ccc1O (centres undefined) | inconclusive: 16.4 µM [cytotoxic, partial curve, poor fit] | 
15 | CCN(CC)c1ccc2cc(C(=O)c3cccs3)c(=O)oc2c1 | inconclusive: 29.1 µM [cytotoxic, single point] | 
16 | Cc1c(C(=O)Nc2ccccc2)sc2nc3n(c(=O)c12)CCCCC3 |  | inactive: 0%
17 | COc1ccc(S(=O)(=O)Nc2c(NC3CCCCC3)c3ccccc3oc2=O)cc1 |  | inactive: -3.46%
18 | CC(C)N(C)Cc1nnnn1CC(=O)NCCc1cccc(C(F)(F)F)c1 |  | inactive: -23.1%
19 | CC(C)CCn1c(SCCc2ccccc2)nc2c1c(=O)[nH]c(=O)n2C | inconclusive: 3.66 µM [cytotoxic, full curve, poor fit] | 
20 | Cc1cc(/C=N/Nc2ncnc(N)c2[N+](=O)[O-])c(C)n1-c1ccccc1 | inconclusive: 18.4 µM [cytotoxic, partial curve, poor fit] | 
21 | Cc1ccc2c(=O)cc(C(=O)Nc3ccc(S(=O)(=O)N(C)Cc4ccccc4)cc3)oc2c1 |  | inactive: -16%
22 | COc1cc2oc(=O)c(Br)c(C)c2c(OC)c1OC | inconclusive: 20.6 µM [cytotoxic, single point] | 

Of the compounds above, two contain an NH in an aromatic ring:
Row | Compound | Potency | activity change, negative = cytotoxicity
10 | Cc1[nH]nc(-c2ccc(O)c(C)c2O)c1-c1cnn(-c2ccccc2)c1 | active: 16.4 µM | 
19 | CC(C)CCn1c(SCCc2ccccc2)nc2c1c(=O)[nH]c(=O)n2C | inconclusive: 3.66 µM [cytotoxic, full curve, poor fit] | 

(list continues)

Row | Compound | Potency | activity change, negative = cytotoxicity
23 | O=C1C(=O)N(c2ccccc2)C(c2ccccc2)C1c1ccccc1 (centres undefined) | inconclusive: 20.6 µM [cytotoxic, single point] | 
24 | COc1cc(C(=O)COC(=O)CNC(=O)C2CCCCC2)cc(OC)c1OC |  | inactive: 3.3%
25 | CCC1=Nc2cc(C(=O)NCc3cccnc3)ccc2Sc2ccc(C)cc21 | inconclusive: 1.84 µM [cytotoxic, full curve, poor fit] | 
26 | Cc1ccc(SC(C)C(=O)NCc2cccnc2)cc1 (centres undefined) |  | inconclusive: 19%
27 | CCN(C(=O)CSc1nc2n[nH]c(C)c2c(=N)n1-c1ccc(Cl)c(C)c1)c1cccc(C)c1 | inconclusive: 18.4 µM [cytotoxic, single point] | 
28 | O=C(N/C(=C/c1ccccc1)C(=O)N1CCCCC1)c1ccccc1 | inconclusive: 29.1 µM [cytotoxic, single point] | 
29 | CC1(C)Cc2ccccc2C(NNC(=O)c2ccccn2)=N1 | inconclusive: 8.2 µM [cytotoxic, partial curve] | 
30 | O=c1oc(-c2ccccc2)c(-c2ccccc2)c2ccccc12 |  | inactive: 3.53%
31 | Cc1cccc(-c2noc(CN(C)C(=O)c3ccoc3C)n2)c1 | inconclusive: 0.411 µM [rising, partial curve, poor fit] | 
32 | CCCOc1cccc(C(=O)N(Cc2ccc(OC)c(OC)c2)C2CCS(=O)(=O)C2)c1 (centres undefined) | active: 16.4 µM | 
33 | COc1ccc(N2CC(NC(=O)C3CC3)CC2=O)cc1OC (centres undefined) | inconclusive: 29.1 µM [rising, single point] | 
34 | CCOc1cccc(C2CC(=O)Nc3cc(OC)c(OC)cc32)c1 (centres undefined) |  | inactive: -0.307%
35 | CCOC(=O)C1CCCN(CCC(=O)Nc2cccc(C)c2)C1 (centres undefined) | inconclusive: 0.0073 µM [cytotoxic, full curve, poor fit] | 
36 | COc1ccc(CN2C(=O)c3ccccc3C2=O)cc1C(=O)OC(C)C(=O)NC(N)=O (centres undefined) |  | inconclusive: 2.16%
37 | COc1ccc(-n2nc(C(=O)NCC(=O)NCC3CCCO3)c3ccccc3c2=O)cc1Cl (centres undefined) | active: 9.2 µM | 
38 | CCC(Sc1nc2ccccc2c2nc(-c3ccccc3)nn12)C(=O)Nc1cccc(OC)c1 (centres undefined) | inconclusive: 16.4 µM [rising, partial curve, poor fit] | 
39 | Cc1occc1-c1nnc(SCC(=O)Nc2nc(C(C)(C)C)cs2)o1 | inconclusive: 9.2 µM [cytotoxic, partial curve] | 
40 | C=CCN1C(=O)/C(=C\c2cccs2)C(C(=O)OC)=C1C | inconclusive: 20.6 µM [cytotoxic, single point] | 
41 | CCN(c1ccccc1)S(=O)(=O)c1ccc(C(=O)Nc2ccc(C)cn2)cc1 | inconclusive: 16.4 µM [cytotoxic, single point] | 
42 | CN(C)C(CN1C(=O)C2CC=CCC2C1=O)c1cn(C)c2ccccc12 (centres undefined) |  | inactive: -1.79%
43 | COc1ccc(CC(=O)OCC(=O)c2ccc(OC)cc2)cc1 | inconclusive: 14.6 µM [rising, partial curve, poor fit] | 
44 | CCC(=O)N1CCc2cc(S(=O)(=O)N3CCN(c4ccccn4)CC3)ccc21 | inconclusive: 16.4 µM [cytotoxic, single point] | 
